According to US6838550:
Results are given in words; binding and its absence hold for the method and conditions named. Some entries that bind do so weakly or less than the wild type.

Biological target: Gal4BD-DR3 (GAL4 DNA-binding domain fused to the intracellular domain of DR3) (UniProt P04386)
Experiment: yeast two-hybrid, Gal4BD-DR3 bait against HeLa cDNA library

B1: human SODD (Suppressor of Death Domain) polypeptide, SEQ ID NO:2 (protein)
chain: MSALRRSGYGPSDGPSYGRYYGPGGGDVPVHPPPPLYPLRPEPPQPPISWRVRGGGPAETTWLGEGGGGDGYYPSGGAWPEPGRAGGSHQEQPPYPSYNSNYWNSTARSRAPYPSTYPVRPELQGQSLNSYTNGAYGPTYPPGPGANTASYSGAYYAPGYTQTSYSTEVPSTYRSSGNSPTPVSRWIYPQQDCQTEAPPLRGQVPGYPPSQNPGMTLPHYPYGDGNRSVPQSGPTVRPQEDAWASPGAYGMGGRYPWPSSAPSAPPGNLYMTESTSPWPSSGSPQSPPSPPVQQPKDSSYPYSQSDQSMNRHNFPCSVHQYESSGTVNNDDSDLLDSQVQYSAEPQLYGNATSDHPNNQDQSSSLPEECVPSDESTPPSIKKIIHVLEKVQYLEQEVEEFVGKKTDKAYWLLEEMLTKELLELDSVETGGQDSVRQARKEAVCKIQAILEKLEKKGL
binding: binds
